The values that follow are results of earlier work, collected in patent US20070266892A1, “Amyloid and Amyloid-like Structures” (The Provost, Fellows and Scholars of the College of The …, priority 2006, published 2007).

For the series the following is noted: literature values; cited from earlier work.

On to tenascin, for which the persistence length is reported as 0.42 nm.

Take titin: the persistence length is listed as 0.4 nm.
